Drawing on patent US6558912, this text covers binding for one molecule.

The chains behind the UniProt entries cited, without tags or fusion partners. Residues count along the entry.
UniProt P07174, residues 30-425: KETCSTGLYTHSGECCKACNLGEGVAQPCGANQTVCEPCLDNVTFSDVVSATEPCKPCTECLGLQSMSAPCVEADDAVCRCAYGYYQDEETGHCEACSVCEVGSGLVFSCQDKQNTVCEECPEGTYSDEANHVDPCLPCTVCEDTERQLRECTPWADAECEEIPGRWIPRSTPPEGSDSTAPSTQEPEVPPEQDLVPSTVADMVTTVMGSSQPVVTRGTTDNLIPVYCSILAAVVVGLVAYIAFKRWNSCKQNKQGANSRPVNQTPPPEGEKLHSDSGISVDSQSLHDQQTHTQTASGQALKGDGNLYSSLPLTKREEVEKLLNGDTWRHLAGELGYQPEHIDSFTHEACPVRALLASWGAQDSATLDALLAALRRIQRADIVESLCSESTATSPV

Results are given in words; binding and its absence hold for the method and conditions named. In cells and extracts the contact can be indirect. Some binding calls cover weakened binding; strength is not graded here.

The target of the assay is endogenous p75NTR of PC12 cells (UniProt P07174). As to the kind of experiment: co-immunoprecipitation from PC12 cells.

B1: endogenous NRAGE of PC12 cells (protein, UniProt Q9ES73 1-775, looked up)
chain: MAQKPDGGAGLRGFQAEASVEDSALLVQTLMEAIQISEAPPTSQATAAASGPNASPQSSQPPTANEKADTEVSAAAARPKTGFKAQNTTTKGPNDYSQARNAKEMPKNQPKVAFKSQNATSKGPHAASDFSHAASTGKSAAKKSEMAFKGQNTTTKAGPSATYNFTQSPSANEMTNNQPKTAKAWNDTTKIPGADAQTQNVNQAKMADVGTSAGISETDGAAAQTSADGSQAQNVESRTIIRGKRTRKINNLNVEENSNGDQRRASLASGNWRSAPVPVTTQNPPGAPPNVLWQTPLAWQNPSGWQNQTARQTPPARQSPPARQTPSAWQNPVAWQNPVIWPNPVIWQNPVIWPNPIVWPGPIVWPNPMAWQSTPGWQSPPSWQAPPSWQSPQDWQGPPDWQLPPDWSMPPDWSFPSDWPFPPDWIPADWPIPPDWQNLRPSPNLRSSPNSRASQNQGPPQPRDVALLQERANKLVKYLMLKDYTKVPIKRSEMLRDIIREYTDVYPEIIERACFVLEKKFGIQLKEIDKEEHLYILISTPESLAGILGTTKDTPKLGLLLVILGIIFMNGNRATEAVLWEALRKMGLRPGVRHPLLGDLRKLLTYEFVKQKYLDYRRVPNSNPPEYEFLWGLRSYHETSKMKVLRFIAEVQKRDPRDWTAQFMEAADEALDALDAAAAEAEARAEARNRMGIGDEAVSGPWSWDDIEFELLTWDEEGDFGDPWSRIPFTFWARYHQNARSRFPQAFTGPIIGPSGTATANFAANFGAIGFFWVE
With B1, the binding result is “binds”.
